Measurements published in article PMC10618295.
Results are given in words; binding and its absence hold for the method and conditions named. Binding seen in cells or lysates may run through a third protein.

Amino acid sequences for entries named in this document (tags omitted).
UniProt Q96EB6: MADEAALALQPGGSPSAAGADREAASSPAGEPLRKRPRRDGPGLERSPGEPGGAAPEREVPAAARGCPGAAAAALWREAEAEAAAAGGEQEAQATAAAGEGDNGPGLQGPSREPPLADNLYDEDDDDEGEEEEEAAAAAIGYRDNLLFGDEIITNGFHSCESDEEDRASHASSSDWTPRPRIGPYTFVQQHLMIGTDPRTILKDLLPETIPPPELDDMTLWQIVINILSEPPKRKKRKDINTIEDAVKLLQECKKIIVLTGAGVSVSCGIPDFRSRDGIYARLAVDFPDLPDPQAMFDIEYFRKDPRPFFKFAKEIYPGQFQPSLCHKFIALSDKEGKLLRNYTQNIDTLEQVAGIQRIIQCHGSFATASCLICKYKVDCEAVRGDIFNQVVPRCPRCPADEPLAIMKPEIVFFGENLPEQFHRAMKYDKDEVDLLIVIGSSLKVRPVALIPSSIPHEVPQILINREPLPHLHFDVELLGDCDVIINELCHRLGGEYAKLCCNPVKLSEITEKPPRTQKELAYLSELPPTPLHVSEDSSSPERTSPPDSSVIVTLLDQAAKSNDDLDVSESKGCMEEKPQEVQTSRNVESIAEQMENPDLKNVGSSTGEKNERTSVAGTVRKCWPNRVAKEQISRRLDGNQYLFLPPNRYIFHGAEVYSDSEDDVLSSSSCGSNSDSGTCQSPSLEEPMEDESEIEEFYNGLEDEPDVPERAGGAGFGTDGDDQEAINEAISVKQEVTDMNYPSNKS
UniProt P01106: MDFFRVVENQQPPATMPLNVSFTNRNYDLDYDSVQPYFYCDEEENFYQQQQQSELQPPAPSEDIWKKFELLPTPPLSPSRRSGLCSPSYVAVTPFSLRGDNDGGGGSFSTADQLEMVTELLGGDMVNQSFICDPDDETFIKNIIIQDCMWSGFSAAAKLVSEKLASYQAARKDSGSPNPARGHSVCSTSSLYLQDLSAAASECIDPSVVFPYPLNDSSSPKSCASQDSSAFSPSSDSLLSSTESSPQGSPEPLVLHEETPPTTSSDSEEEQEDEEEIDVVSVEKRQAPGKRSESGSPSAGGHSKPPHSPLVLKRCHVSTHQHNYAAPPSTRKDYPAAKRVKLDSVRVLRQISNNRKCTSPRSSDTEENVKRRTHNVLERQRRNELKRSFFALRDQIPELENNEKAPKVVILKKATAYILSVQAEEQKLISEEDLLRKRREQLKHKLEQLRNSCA

Molecular target: SIRT1 (anti-SIRT1 immunoprecipitation of Supplementary Fig. 6c) (UniProt Q96EB6)
Assay: co-IP; precipitation with an anti-SIRT1 antibody (Supplementary Fig. 6c); cells not given

c-Myc (from UniProt P01106 1-454) (other; other documents disagree on this pair)
binding: no binding
